Some of the results follow.
What was measured:
Assay in all cases: log2 fold change, soluble protein after heating vs DMSO (PISA); higher = thermal stabilisation; K562 lysate, 10 uM; active = over 0.2 and 3.5 SD of the protein, either way, in both replicates (recomputed)
vemurafenib = compound: CCCS(=O)(=O)Nc1ccc(F)c(C(=O)c2c[nH]c3ncc(-c4ccc(Cl)cc4)cc23)c1F [vemurafenib]
How it was run: (§1)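 To prepare the extract, K562 pellets were dounce-homogenised in PBS pH 7.4 with 1 mM MgCl2, giving crude material at 1 mg/mL protein. This was treated with 10 μM compound for 30 min, then heated in aliquots for 3 min over 48°C-58°C before pooling and addition of NP-40 to 0.5% at 4°C. Centrifugation at 21,000xg for 90 min left soluble protein in the supernatant, which TMTpro 16plex LC-MS/MS quantified with equalised channel sums. Results are log-two fold changes in thermal stability compared with solvent controls, from duplicates.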

Amino acid sequences for entries named in this document (tags omitted). A change or cut given only in a name is not applied to a line headed by its entry.
UniProt O94826, whole entry, looked up: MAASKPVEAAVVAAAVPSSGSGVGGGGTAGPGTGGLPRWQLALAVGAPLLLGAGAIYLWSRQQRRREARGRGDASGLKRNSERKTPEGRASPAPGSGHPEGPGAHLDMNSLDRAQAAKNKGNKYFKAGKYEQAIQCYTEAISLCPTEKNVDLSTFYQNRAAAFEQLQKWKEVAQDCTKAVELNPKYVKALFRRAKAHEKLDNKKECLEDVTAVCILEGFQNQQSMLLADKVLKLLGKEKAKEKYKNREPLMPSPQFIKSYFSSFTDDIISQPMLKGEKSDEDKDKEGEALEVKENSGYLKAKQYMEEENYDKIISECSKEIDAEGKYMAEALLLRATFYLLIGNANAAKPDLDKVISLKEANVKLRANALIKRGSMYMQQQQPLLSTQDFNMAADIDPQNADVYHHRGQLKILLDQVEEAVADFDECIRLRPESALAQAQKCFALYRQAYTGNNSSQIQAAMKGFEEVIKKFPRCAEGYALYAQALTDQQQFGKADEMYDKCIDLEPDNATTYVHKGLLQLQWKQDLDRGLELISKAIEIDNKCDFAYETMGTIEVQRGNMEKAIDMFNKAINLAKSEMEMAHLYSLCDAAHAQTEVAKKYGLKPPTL
UniProt O14657: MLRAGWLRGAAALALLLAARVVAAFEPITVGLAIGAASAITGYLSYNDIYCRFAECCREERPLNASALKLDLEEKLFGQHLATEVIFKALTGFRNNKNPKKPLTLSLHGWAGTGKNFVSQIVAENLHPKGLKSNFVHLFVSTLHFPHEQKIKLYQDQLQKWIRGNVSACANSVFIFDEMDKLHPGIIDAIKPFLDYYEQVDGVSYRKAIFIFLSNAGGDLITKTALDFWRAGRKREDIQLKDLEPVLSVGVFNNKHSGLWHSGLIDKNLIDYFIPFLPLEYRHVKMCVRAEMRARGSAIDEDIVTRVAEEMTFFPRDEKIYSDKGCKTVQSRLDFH
UniProt O75674: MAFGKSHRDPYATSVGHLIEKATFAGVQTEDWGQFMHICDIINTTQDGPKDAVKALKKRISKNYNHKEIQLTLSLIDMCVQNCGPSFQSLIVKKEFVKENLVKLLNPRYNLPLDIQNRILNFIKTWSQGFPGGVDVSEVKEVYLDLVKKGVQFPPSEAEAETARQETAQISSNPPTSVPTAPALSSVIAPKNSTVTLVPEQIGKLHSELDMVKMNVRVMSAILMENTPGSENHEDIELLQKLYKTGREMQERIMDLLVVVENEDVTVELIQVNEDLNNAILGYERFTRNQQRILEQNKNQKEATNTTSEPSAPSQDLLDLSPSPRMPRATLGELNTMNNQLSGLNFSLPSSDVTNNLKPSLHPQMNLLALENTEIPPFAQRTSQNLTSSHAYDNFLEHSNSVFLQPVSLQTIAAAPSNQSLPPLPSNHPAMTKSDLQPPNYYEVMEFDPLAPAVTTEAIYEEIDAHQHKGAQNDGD
UniProt O94842: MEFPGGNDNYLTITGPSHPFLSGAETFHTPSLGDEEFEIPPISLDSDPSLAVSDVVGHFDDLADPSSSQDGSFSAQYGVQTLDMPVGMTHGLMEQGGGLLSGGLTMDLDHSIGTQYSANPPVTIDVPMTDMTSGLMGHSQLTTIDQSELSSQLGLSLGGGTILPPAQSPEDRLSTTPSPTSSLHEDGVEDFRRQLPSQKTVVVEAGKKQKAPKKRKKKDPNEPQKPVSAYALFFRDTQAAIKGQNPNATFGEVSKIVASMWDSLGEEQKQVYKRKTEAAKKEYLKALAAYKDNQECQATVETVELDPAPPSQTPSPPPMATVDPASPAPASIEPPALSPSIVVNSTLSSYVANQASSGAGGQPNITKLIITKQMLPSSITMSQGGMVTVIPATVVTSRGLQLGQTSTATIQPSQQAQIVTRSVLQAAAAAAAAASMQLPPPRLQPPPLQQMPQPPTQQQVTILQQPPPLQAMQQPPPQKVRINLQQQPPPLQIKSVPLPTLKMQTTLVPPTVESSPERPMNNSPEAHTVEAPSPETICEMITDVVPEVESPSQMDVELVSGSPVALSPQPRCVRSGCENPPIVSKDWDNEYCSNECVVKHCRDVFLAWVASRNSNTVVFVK
UniProt P67936, whole entry, looked up: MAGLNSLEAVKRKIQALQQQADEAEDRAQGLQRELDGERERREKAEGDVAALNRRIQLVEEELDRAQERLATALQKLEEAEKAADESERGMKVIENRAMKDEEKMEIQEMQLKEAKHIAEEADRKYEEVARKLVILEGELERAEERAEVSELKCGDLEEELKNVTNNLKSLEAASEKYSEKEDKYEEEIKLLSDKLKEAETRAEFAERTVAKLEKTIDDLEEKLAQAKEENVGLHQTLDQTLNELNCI
UniProt Q9NS69: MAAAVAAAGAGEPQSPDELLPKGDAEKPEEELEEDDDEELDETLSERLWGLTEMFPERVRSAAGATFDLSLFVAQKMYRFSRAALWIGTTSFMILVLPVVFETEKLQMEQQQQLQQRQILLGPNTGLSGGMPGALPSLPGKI
UniProt Q4ZIN3: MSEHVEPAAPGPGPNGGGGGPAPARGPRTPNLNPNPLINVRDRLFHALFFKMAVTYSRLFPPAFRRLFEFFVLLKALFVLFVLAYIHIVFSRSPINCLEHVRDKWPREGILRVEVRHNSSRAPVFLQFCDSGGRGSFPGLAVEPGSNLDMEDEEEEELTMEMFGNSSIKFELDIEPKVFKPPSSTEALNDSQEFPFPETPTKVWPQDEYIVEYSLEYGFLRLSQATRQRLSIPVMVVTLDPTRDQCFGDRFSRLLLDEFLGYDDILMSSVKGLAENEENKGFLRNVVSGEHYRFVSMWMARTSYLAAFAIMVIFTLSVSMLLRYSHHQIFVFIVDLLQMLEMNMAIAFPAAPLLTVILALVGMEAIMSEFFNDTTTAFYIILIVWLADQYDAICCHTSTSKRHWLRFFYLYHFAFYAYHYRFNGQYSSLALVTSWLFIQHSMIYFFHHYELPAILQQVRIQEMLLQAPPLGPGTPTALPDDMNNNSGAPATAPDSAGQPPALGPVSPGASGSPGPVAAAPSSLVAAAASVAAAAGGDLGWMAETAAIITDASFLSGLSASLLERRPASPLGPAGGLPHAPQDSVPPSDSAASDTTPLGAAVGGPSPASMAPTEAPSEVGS
UniProt O60704: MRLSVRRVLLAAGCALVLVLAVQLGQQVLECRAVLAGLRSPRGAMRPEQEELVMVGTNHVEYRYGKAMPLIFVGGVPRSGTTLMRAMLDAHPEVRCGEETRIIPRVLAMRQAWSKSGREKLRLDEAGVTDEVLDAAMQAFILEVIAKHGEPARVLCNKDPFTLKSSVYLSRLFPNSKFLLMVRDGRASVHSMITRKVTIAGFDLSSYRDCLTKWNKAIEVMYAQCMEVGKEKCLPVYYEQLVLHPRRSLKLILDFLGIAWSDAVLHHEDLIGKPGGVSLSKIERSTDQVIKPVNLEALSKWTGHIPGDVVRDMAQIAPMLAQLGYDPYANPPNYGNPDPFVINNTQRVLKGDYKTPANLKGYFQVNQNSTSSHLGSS
UniProt Q9NVH6: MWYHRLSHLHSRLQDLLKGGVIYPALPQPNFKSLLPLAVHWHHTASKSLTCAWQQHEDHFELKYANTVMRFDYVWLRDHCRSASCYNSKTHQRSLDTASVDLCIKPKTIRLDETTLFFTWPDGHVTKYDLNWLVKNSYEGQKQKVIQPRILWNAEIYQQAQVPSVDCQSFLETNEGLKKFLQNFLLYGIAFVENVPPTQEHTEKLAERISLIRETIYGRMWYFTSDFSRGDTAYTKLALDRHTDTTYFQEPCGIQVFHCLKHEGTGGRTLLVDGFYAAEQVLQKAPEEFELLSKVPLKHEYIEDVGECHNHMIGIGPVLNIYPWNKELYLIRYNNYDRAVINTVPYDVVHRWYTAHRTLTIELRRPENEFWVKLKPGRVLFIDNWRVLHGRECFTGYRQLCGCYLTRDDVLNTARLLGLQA
UniProt Q9ULW0, whole entry, looked up: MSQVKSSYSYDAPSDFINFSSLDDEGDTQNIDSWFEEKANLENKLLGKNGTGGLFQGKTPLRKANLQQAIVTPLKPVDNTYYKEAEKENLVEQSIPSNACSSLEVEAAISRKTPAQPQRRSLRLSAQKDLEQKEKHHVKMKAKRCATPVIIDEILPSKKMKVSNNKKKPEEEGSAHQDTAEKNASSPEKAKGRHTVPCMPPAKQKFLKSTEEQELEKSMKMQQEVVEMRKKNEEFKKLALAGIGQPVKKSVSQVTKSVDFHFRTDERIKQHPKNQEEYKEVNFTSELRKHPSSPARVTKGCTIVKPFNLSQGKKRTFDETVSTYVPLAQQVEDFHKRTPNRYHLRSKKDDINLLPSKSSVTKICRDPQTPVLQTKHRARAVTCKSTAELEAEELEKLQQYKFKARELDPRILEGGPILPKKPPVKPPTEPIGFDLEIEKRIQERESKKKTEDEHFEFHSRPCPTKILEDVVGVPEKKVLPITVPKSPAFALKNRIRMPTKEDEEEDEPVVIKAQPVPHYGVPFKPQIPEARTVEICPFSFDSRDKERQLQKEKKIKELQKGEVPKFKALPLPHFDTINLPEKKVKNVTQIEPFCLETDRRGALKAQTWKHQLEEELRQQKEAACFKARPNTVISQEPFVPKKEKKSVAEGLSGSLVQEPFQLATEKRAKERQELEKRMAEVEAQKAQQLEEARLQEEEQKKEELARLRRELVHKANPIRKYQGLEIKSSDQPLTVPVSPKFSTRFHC
UniProt Q6NUQ4: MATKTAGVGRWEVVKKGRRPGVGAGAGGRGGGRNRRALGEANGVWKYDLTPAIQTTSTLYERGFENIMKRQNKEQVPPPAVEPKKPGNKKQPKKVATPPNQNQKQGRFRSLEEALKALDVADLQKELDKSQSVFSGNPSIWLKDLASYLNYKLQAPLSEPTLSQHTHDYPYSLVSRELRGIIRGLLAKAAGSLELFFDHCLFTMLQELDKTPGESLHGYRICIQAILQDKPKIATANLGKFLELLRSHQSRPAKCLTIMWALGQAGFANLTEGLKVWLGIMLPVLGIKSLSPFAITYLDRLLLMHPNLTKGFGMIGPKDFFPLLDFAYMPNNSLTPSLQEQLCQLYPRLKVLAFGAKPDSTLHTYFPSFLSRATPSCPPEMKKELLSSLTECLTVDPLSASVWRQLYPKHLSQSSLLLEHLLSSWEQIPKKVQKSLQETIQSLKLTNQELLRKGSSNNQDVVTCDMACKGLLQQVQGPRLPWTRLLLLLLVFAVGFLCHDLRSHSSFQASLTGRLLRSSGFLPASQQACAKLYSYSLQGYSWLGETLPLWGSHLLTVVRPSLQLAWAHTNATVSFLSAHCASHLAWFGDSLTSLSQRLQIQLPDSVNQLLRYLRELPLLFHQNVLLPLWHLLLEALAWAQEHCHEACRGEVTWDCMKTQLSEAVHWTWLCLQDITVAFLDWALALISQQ
UniProt Q13472: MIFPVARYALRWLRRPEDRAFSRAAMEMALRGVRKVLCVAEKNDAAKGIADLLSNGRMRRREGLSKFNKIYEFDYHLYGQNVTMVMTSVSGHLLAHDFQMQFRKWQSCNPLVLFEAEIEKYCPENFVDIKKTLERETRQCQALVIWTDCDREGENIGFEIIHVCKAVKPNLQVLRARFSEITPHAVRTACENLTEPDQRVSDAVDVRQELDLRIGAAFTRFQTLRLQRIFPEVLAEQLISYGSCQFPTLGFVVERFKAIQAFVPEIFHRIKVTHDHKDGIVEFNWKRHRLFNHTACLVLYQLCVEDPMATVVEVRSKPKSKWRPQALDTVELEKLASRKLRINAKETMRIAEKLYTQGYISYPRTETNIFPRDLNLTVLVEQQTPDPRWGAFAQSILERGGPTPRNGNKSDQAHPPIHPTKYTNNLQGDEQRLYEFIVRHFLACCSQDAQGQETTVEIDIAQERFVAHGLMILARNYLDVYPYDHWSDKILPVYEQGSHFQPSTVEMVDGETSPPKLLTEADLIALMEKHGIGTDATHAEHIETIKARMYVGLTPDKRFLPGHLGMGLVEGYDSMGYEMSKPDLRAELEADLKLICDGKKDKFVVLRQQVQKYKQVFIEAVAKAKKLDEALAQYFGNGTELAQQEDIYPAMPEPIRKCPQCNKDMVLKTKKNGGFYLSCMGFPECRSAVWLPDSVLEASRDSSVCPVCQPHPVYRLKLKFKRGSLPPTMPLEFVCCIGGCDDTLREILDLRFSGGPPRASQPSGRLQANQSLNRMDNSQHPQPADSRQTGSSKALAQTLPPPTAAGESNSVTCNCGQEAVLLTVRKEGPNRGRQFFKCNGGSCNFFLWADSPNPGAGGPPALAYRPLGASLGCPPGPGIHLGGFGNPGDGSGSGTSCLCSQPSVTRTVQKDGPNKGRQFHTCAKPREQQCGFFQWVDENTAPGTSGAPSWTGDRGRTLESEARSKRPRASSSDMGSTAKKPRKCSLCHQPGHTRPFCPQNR
UniProt Q8N4H5: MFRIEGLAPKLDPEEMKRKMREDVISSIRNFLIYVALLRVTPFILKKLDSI
UniProt Q15388, whole entry, looked up: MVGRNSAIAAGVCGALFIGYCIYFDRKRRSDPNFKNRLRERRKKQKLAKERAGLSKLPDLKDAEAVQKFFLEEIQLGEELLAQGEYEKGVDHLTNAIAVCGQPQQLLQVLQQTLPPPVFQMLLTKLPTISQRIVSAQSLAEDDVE

[1] = compound: CCCS(=O)(=O)Nc1ccc(F)c(C(=O)c2c[nH]c3ncc(Cl)cc23)c1F
How it was run: as §1

barasertib = compound: CCN(CCCOc1ccc2c(Nc3cc(CC(=O)Nc4cccc(F)c4)[nH]n3)ncnc2c1)CCOP(=O)(O)O [barasertib]
How it was run: as §1

[2] = compound: CC[C@@H]1C(=O)N(C)c2cnc(Nc3ccc(C(=O)NC4CCN(C)CC4)cc3OC)nc2N1C1CCCC1
How it was run: as §1

volasertib = compound: CC[C@@H]1C(=O)N(C)c2cnc(Nc3ccc(C(=O)N[C@H]4CC[C@H](N5CCN(CC6CC6)CC5)CC4)cc3OC)nc2N1C(C)C [volasertib]
How it was run: as §1

[3] = compound: CCn1c(C(=O)N(C2CC2)C2CC2)cc2c3c(ncn3C)c(Nc3cc(C)n(C)n3)nc21
How it was run: as §1

[4] = compound: CCn1cc(-c2ccnc3[nH]c(-c4cccc(CN(C)C)c4)cc23)c(-c2ccc(NC(=O)N(C)C)cc2)n1
How it was run: as §1

[5] = compound: CN1CCC(CNc2ccc3ncc(-c4cccc(OC(F)(F)F)c4)n3n2)CC1
How it was run: as §1

saracatinib = compound: CN1CCN(CCOc2cc(OC3CCOCC3)c3c(Nc4c(Cl)ccc5c4OCO5)ncnc3c2)CC1 [saracatinib]
How it was run: as §1

sotrastaurin = compound: CN1CCN(c2nc(C3=C(c4c[nH]c5ccccc45)C(=O)NC3=O)c3ccccc3n2)CC1 [sotrastaurin]
How it was run: as §1

alvocidib = compound: CN1CC[C@H](c2c(O)cc(O)c3c(=O)cc(-c4ccccc4Cl)oc23)[C@H](O)C1 [alvocidib]
How it was run: as §1

Tubastatin A = compound: CN1CCc2c(c3ccccc3n2Cc2ccc(C(=O)NO)cc2)C1 [Tubastatin A]
How it was run: as §1

[6] = compound: CNC(=O)C1=CC=CC=C1NC2=NC(=NC=C2Cl)NC3=C(C=C(C=C3)N4CCOCC4)OC
How it was run: as §1

defactinib = compound: CNC(=O)c1ccc(Nc2ncc(C(F)(F)F)c(NCc3nccnc3N(C)S(C)(=O)=O)n2)cc1 [defactinib]
How it was run: as §1

[7] = compound: CNc1nc(-c2ccc3c(N)n[nH]c3c2)cc(N2C[C@@H](C(=O)NC3CCCCC3)CC[C@H]2C)n1
How it was run: as §1

encorafenib = compound: COC(=O)N[C@@H](C)CNc1nccc(-c2cn(C(C)C)nc2-c2cc(Cl)cc(NS(C)(=O)=O)c2F)n1 [encorafenib]
How it was run: as §1

[8] = compound: COC(=O)[C@H](CCSC)NC(=O)C1=C(C=C(C=C1)NC[C@H](CS)N)C2=CC=CC=C2
How it was run: as §1

alisertib = compound: COc1cc(Nc2ncc3c(n2)-c2ccc(Cl)cc2C(c2c(F)cccc2OC)=NC3)ccc1C(=O)O [alisertib]
How it was run: as §1

[9] = compound: COc1cc2nc(-c3cc(F)ccc3O)nc(N[C@@H]3CNC[C@H]3C(C)(C)O)c2cc1OC
How it was run: as §1

gefitinib = compound: COc1cc2ncnc(Nc3ccc(F)c(Cl)c3)c2cc1OCCCN1CCOCC1 [gefitinib]
How it was run: as §1

Measured: log2 fold change

TOMM70 (UniProt O94826)
inactive: vemurafenib 0.047 | [1] -0.013 | barasertib 0.038 | [2] 0.025 | volasertib 0.003 | [3] 0.03 | [4] 0.19 | [5] -0.115 | saracatinib -0.018 | sotrastaurin 0.005 | alvocidib 0.007 | Tubastatin A -0.005 | [6] 0.035 | defactinib -0.02 | [7] -0.011 | encorafenib 0.061 | [8] -0.282 | alisertib -0.025 | [9] 0.02 | gefitinib 0.034

TOR1B (UniProt O14657)
inactive: vemurafenib -0.02 | [1] 0.021 | barasertib 0.032 | [2] -0.175 | volasertib 0.012 | [3] -0.03 | [4] -0.04 | [5] 0.053 | saracatinib 0.01 | sotrastaurin 0.076 | alvocidib -0.006 | Tubastatin A -0.025 | [6] -0.001 | defactinib 0.048 | [7] -0.099 | encorafenib 0.031 | [8] 0.032 | alisertib -0.022 | [9] 0.015 | gefitinib 0.015

TOM1L1 (UniProt O75674)
inactive: vemurafenib -0.026 | [1] 0.015 | barasertib 0.014 | [2] 0.073 | volasertib 0.03 | [3] -0.013 | [4] 0.017 | [5] 0.023 | saracatinib -0.03 | sotrastaurin 0 | alvocidib -0.057 | Tubastatin A -0.022 | [6] 0.018 | defactinib -0.05 | [7] -0.045 | encorafenib 0.018 | [8] -0.022 | alisertib -0.004 | [9] -0.008 | gefitinib 0.018

TPM1 isoform 4 (UniProt P09493)
inactive: vemurafenib -0.049 | [1] -0.012 | barasertib -0.036 | [2] -0.018 | volasertib 0.033 | [3] 0.013 | [4] 0.106 | [5] -0.149 | saracatinib 0.031 | sotrastaurin -0.012 | alvocidib 0.017 | Tubastatin A 0.073 | [6] -0.013 | defactinib -0.031 | [7] -0.12 | encorafenib 0.02 | [8] -0.088 | alisertib 0.035 | [9] -0.012 | gefitinib 0.008

TOX4 (UniProt O94842)
inactive: vemurafenib -0.019 | [1] 0.005 | barasertib 0.017 | [2] 0.06 | volasertib -0.027 | [3] -0.018 | [4] -0.235 | [5] 0.147 | saracatinib 0.041 | sotrastaurin 0.005 | alvocidib -0.16 | Tubastatin A -0.006 | [6] 0.027 | defactinib 0.025 | [7] -0.022 | encorafenib -0.011 | [8] -0.082 | alisertib 0.028 | [9] -0.013 | gefitinib -0.016

TPM4 (UniProt P67936)
inactive: vemurafenib -0.025 | [1] 0.009 | barasertib 0.047 | [2] 0.125 | volasertib 0.055 | [3] 0.018 | [4] 0.037 | [5] -0.007 | saracatinib 0.002 | sotrastaurin 0.013 | alvocidib -0.016 | Tubastatin A 0.074 | [6] -0.021 | defactinib 0.019 | [7] 0.022 | encorafenib 0.028 | [8] -0.028 | alisertib -0.105 | [9] 0.012 | gefitinib 0.033

TOMM22 (UniProt Q9NS69)
inactive: vemurafenib 0.02 | [1] 0.009 | barasertib 0.062 | [2] 0.06 | volasertib 0.039 | [3] 0.011 | [4] -0.064 | [5] 0.014 | saracatinib -0.018 | sotrastaurin -0.029 | alvocidib 0.002 | Tubastatin A 0.046 | [6] 0.005 | defactinib -0.01 | [7] 0.019 | encorafenib 0.024 | [8] -0.041 | alisertib -0.016 | [9] -0.025 | gefitinib -0.033

2 successive entries already listed, quoted:
TOMM70 (UniProt O94826)
inactive: vemurafenib 0.047 | [1] -0.013 | barasertib 0.038 | [2] 0.025 | volasertib 0.003 | [3] 0.03 | [4] 0.19 | [5] -0.115 | saracatinib -0.018 | sotrastaurin 0.005 | alvocidib 0.007 | Tubastatin A -0.005 | [6] 0.035 | defactinib -0.02 | [7] -0.011 | encorafenib 0.061 | [8] -0.282 | alisertib -0.025 | [9] 0.02 | gefitinib 0.034

TOR1B (UniProt O14657)
inactive: vemurafenib -0.02 | [1] 0.021 | barasertib 0.032 | [2] -0.175 | volasertib 0.012 | [3] -0.03 | [4] -0.04 | [5] 0.053 | saracatinib 0.01 | sotrastaurin 0.076 | alvocidib -0.006 | Tubastatin A -0.025 | [6] -0.001 | defactinib 0.048 | [7] -0.099 | encorafenib 0.031 | [8] 0.032 | alisertib -0.022 | [9] 0.015 | gefitinib 0.015

Going on with the list:

TMEM65 (UniProt Q6PI78)
inactive: vemurafenib -0.042 | [1] 0.059 | barasertib 0.103 | [2] -0.096 | volasertib -0.056 | [3] -0.009 | [4] -0.045 | [5] -0.002 | saracatinib -0.052 | sotrastaurin -0.02 | alvocidib -0.02 | Tubastatin A 0.09 | [6] 0.026 | defactinib 0.05 | [7] 0.067 | encorafenib 0.177 | [8] -0.003 | alisertib 0.148 | [9] -0.047 | gefitinib -0.043

TMEM259 (UniProt Q4ZIN3)
inactive: vemurafenib -0.016 | [1] -0.009 | barasertib 0.028 | [2] -0.027 | volasertib 0.028 | [3] 0.087 | [4] 1.04 | [5] -0.03 | saracatinib -0.004 | sotrastaurin 0.03 | alvocidib 0.007 | Tubastatin A -0.001 | [6] 0.018 | defactinib 0.051 | [7] 0.055 | encorafenib 0.088 | [8] -0.021 | alisertib -0.023 | [9] 0.029 | gefitinib -0.017

TPST2 (UniProt O60704)
active: [4] -0.851
inactive: vemurafenib 0.053 | [1] 0.009 | barasertib 0.097 | [2] 0.075 | volasertib -0.024 | [3] -0.011 | [5] 0.188 | saracatinib 0.011 | sotrastaurin 0.065 | alvocidib -0.107 | Tubastatin A 0.059 | [6] 0.041 | defactinib -0.038 | [7] -0.02 | encorafenib 0.03 | [8] -0.049 | alisertib 0.478 | [9] 0.025 | gefitinib 0.072

TMLHE isoform 8 (UniProt Q9NVH6)
inactive: vemurafenib -0.053 | [1] 0.015 | barasertib 0.079 | [2] 0.034 | volasertib 0.043 | [3] -0.04 | [4] -0.007 | [5] 0.057 | saracatinib 0.031 | sotrastaurin 0.001 | alvocidib -0.005 | Tubastatin A 0.113 | [6] 0.036 | defactinib 0.032 | [7] 0.013 | encorafenib 0.012 | [8] -0.042 | alisertib -0.033 | [9] 0.03 | gefitinib 0.039

TPX2 (UniProt Q9ULW0)
active: [8] -0.215
inactive: vemurafenib -0.006 | [1] -0.013 | barasertib -0.036 | [2] 0.093 | volasertib 0.012 | [3] -0.035 | [4] 0.04 | [5] -0.007 | saracatinib 0.03 | sotrastaurin -0.016 | alvocidib -0.002 | Tubastatin A -0.129 | [6] 0.014 | defactinib 0.01 | [7] 0.045 | encorafenib 0.041 | alisertib 0.043 | [9] -0.027 | gefitinib 0.012

TMEM214 (UniProt Q6NUQ4)
inactive: vemurafenib 0.021 | [1] 0.004 | barasertib 0.074 | [2] 0.076 | volasertib -0.044 | [3] -0.015 | [4] 0.044 | [5] 0.012 | saracatinib 0.081 | sotrastaurin 0.004 | alvocidib 0.091 | Tubastatin A -0.052 | [6] -0.013 | defactinib 0.007 | [7] -0.035 | encorafenib 0.011 | [8] -0.184 | alisertib 0.021 | [9] 0.022 | gefitinib 0.004

TOP3A (UniProt Q13472)
inactive: vemurafenib 0.02 | [1] -0.016 | barasertib 0.055 | [2] 0.164 | volasertib -0.083 | [3] 0.06 | [4] -0.007 | [5] 0.086 | saracatinib -0.051 | sotrastaurin 0.069 | alvocidib 0.082 | Tubastatin A -0.1 | [6] -0.071 | defactinib -0.048 | [7] 0.009 | encorafenib 0.008 | [8] 0.091 | alisertib -0.039 | [9] -0.118 | gefitinib -0.005

TOMM5 (UniProt Q8N4H5)
inactive: vemurafenib -0.012 | [1] -0.045 | barasertib 0.075 | [2] 0.166 | volasertib 0.05 | [3] 0.032 | [4] 0.128 | [5] -0.147 | saracatinib -0.038 | sotrastaurin -0.024 | alvocidib 0.272 | Tubastatin A -0.124 | [6] -0.024 | defactinib 0.227 | [7] 0.048 | encorafenib -0.013 | [8] -0.036 | alisertib -0.11 | [9] -0.108 | gefitinib -0.184

TOMM20 (UniProt Q15388)
inactive: vemurafenib -0.009 | [1] 0.012 | barasertib -0.017 | [2] -0.018 | volasertib 0.044 | [3] -0.022 | [4] -0.024 | [5] -0.066 | saracatinib -0.029 | sotrastaurin -0.021 | alvocidib 0.049 | Tubastatin A 0.052 | [6] 0.001 | defactinib 0.011 | [7] 0 | encorafenib -0.033 | [8] 0.082 | alisertib -0.016 | [9] -0.081 | gefitinib 0.047

— the supplement of paper PMC10849652
